Results taken from article PMC5651216, “Structural Basis for a Safety-Belt Mechanism That Anchors Condensin to Chromosomes”.
Where a chain is given by its changes, count along the chain named. Results are given in words; binding and its absence hold for the method and conditions named. Some entries that bind do so weakly or less than the wild type. For some of these results: Tags and fused reporters may be left off the sequences shown.

What was measured:
[1] = molecular target: T1, Sp Cnd2_(416–544) (S. pombe) (UniProt Q9Y7R3); test: crystal structure; Sp Cnd3–Cnd2 subcomplex without DNA; hanging-drop vapor diffusion at 7°C; selenomethionine-labeled and native crystals; both purified
T1 sequence: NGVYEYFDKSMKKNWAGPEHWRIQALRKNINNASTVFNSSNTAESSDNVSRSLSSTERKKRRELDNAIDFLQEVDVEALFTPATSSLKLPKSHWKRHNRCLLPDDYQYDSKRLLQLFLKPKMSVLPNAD

[2] = molecular target: T2, Sc Brn1-His12-HA3 (S. cerevisiae) (UniProt P38170); test: tandem affinity co-purification (HisTrap, Strep-Tactin) and SEC; condensin subunits overexpressed together in S. cerevisiae; HisTrap on Brn1-His12-HA3, Strep-Tactin on Smc4-StrepII3 (wash with 500 mM NaCl), Superose 6; SDS-PAGE and Coomassie staining
T2 sequence: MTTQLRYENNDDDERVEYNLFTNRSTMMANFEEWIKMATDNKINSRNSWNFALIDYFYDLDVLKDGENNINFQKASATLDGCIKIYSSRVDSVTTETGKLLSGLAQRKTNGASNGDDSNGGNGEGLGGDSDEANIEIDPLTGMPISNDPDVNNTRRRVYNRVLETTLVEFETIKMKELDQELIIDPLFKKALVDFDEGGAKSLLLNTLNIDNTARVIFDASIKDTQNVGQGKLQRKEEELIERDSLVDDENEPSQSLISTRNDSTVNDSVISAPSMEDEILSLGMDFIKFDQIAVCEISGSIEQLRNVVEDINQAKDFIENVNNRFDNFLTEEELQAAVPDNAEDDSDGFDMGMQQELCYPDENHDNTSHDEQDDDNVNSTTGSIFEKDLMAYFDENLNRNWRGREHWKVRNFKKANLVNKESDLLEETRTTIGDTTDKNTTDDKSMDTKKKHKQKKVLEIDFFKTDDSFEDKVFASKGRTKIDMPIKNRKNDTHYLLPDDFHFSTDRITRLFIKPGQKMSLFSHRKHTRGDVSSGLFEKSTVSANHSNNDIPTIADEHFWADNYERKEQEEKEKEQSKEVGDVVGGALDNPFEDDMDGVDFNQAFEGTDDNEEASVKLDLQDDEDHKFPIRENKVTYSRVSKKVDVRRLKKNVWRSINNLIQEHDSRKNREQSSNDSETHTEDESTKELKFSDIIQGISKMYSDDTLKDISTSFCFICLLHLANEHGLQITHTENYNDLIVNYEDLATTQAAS

[3] = molecular target: T3, Sc Brn1_(BC1/2)-His12-HA3 (S. cerevisiae) (UniProt P38170); test: as above
T3 sequence: T2 sequence with K409D, R411D, K414D, K451D, K452D, K454D, K456D, K457D

[4] = molecular target: T4, Sc Brn1ΦD-His12-HA3 (S. cerevisiae) (UniProt P38170); test: as above
T4 sequence: T2 sequence with M391D, F394D, W402D, W408D

B1: Sp Cnd3_(1–438, 474–823) (domain or fragment, UniProt Q10429)
chain: MSCIQIISSSQTSIAGHRKLCNKLFTLRTQEGFETDILRALNIILTVKKGNSNADRVLRFLVTFVNYLQQKDPEIDIVQPILKHILRGLDAKDKTVRYRCCQIIARVVNCVKEIDDDLYNTLKEKLLSRVLDRESIVRLEAVVALSRLQEDTGDEENDVRNILLFLLQNDPSSEVRRSVLLNIEVSNSTLPFILERARDVDAANRKCVYARVLPKIGDFRYLSIKKRVRILKWGLNDRDESVEKAAADMLAYQWIENADNNLLELLERLDVSNNSDVAVLAIKKFFDVRVDSLSQLEFPEQFWLELTAESSLLARTFNEICIEKNYTDLLDKMPEVVQLTYYIERQYVSLRDKSSYDESCFIIEQLLYIGLSQDMVDEIGRRKLLKSLTNSLSTMALPDSLISLHIELLRKLCSSENDFCSLLVEIITEVFEQGHSQNPNELNEPEPDDMDGYKEAFNELRCLSYVQCLFENITSSLNENLYMVDMLKTLIIPAVRSHDLPIREKGLECLSLVCLLNADLAFENVPLYLHCYEKGSVVLKCTAIRTLTDMLIQHGKAKFTEYEDAISSILFEALGEFENAELQTLGAEAIAKLLVILHYRDELFLKPLIIQYFEPNTVDNHALRQVLGYFFPVYAFGAHENQWRIATIFCDALLSLLEIYRDLDEDDVQLSIGHIAQQMLDWTDNEKLYERKTQTGDDYIALNHNVHLHLANMIFESLPNASEGKERKFMISLLGKLKIPTDLPSSDYQRTKRKLETYESHGFTMDSTSLSILAKFERMLLQNEEARS
**Q.** How did the binding [1] turn out when B1 was run?
**A.** binds

B2: Sc Ycs4 (protein, UniProt Q06156 1-1176)
chain: MSGFSLSEYLTKFQTTDRESYPRLQDPSRELNVIIDQLAVSPEQIDASPDSLEALIDLCHDFPHLTPKLQTQLSYLISSSLSNLSKDIKANLSSNVNFTEIGGLIPQWKRHLEEYGYLIQVLLTFLQDELHKVSSQSTNLNRSAKNSKNDSANVELFKRDCNQMENLLESITKLLEINLSKIFQTTPEKDLFIGLFTRPLFVLLEIEPVTKVSSLKMFIQRILAMCVKNHGQSSSIQSSLMTNLTYFLHLSVFNAELLKLLNDEYNYPQLTEDILKEISTRVFNAKDTTGPKAISNFLIKLSELSPGIMLRQMNLVITLLNNSSITLRCSVVEACGNIVAELAQDPQTMEHYKQQIAVLIELLEERFQDSNPYVRTKAIQGCSKICDLSSKFNKSKAKFTSLAVRSLQDRSSLVRRNSVKLLSKLLLKHPFKAIHGSQLRLSEWEEYLKGSESQLNSTLKKVESQETLNDTIERSLIEEEVEQDEGQCRTELEGSFNKSAELSRIENEVENINATNTSVLMKLKLMIVYYKDAISFIKEIHKSIELISNLLFSKNRNEVLESMDFLVLADAFDIELSEFGIKKMLHLVWMKGTNDEGTSISVHLIECYKQLFLTAPDSCNMQEKAAHIAKNLINLSIGASIADLASLEQLLGMMYEQKLIDQHVINILWAIYNSASKASMQKEQNVNNRDSEKGFSKEQIHGSIIILGMLSLADNEIALKGLESLLNIGLGAVGLKDLTLCRYSCLALERMVPKRSTIITKAINQELEDVAVKKLYAIIINYTKDNEYYPMCEQALSALFTISSKPDILATDLIREKTMMTFGKPEEEDSILSLEQSSRVVSLSQLLFIVGQVAIKTLVYLEKCEAEFKKRKIEAETRNGKVKNQGADVTNTTQDNGGDKELEMIGGTNEDDFTDAIQFVKENELLFGEKSILGKFCPIVEEIVSNSSRFSDPMLQRTATLCLEKLMCLSSKYCEKSLPLLITVMEKSPDPTIRSNAVLGLGDMAVCFNNLVDENTDYLYRRLHDENLMVQRTCLMTVTFLILAGQVKVKGQLGEMAKCLDNPDQGISDMCRLFFTELASKDNAIYNGFIDIFSNLSSDDLLGKESFKKIIKFLLTFIDKERHQKQLNEKLVGRLRKCETQKQWDDIAFVLNNLPYKNEDVTALLEQGFKVVSAKE
**Q.** For B2, which binding [2] is on record?
**A.** binds

**Q.** And the binding [3]?
**A.** binds

**Q.** What about the binding [4] of the same binder?
**A.** binds

B3: Sc Ycg1 (full length, overexpressed) (protein, UniProt Q06680 1-1035)
chain: MQDPDGIDINTKIFNSVAEVFQKAQGSYAGHRKHIAVLKKIQSKAVEQGYEDAFNFWFDKLVTKILPLKKNEIIGDRIVKLVAAFIASLERELILAKKQNYKLTNDEEGIFSRFVDQFIRHVLRGVESPDKNVRFRVLQLLAVIMDNIGEIDESLFNLLILSLNKRIYDREPTVRIQAVFCLTKFQDEEQTEHLTELSDNEENFEATRTLVASIQNDPSAEVRRAAMLNLINDNNTRPYILERARDVNIVNRRLVYSRILKSMGRKCFDDIEPHIFDQLIEWGLEDRELSVRNACKRLIAHDWLNALDGDLIELLEKLDVSRSSVCVKAIEALFQSRPDILSKIKFPESIWKDFTVEIAFLFRAIYLYCLDNNITEMLEENFPEASKLSEHLNHYILLRYHHNDISNDSQSHFDYNTLEFIIEQLSIAAERYDYSDEVGRRSMLTVVRNMLALTTLSEPLIKIGIRVMKSLSINEKDFVTMAIEIINDIRDDDIEKQEQEEKIKSKKINRRNETSVDEEDENGTHNDEVNEDEEDDNISSFHSAVENLVQGNGNVSESDIINNLPPEKEASSATIVLCLTRSSYMLELVNTPLTENILIASLMDTLITPAVRNTAPNIRELGVKNLGLCCLLDVKLAIDNMYILGMCVSKGNASLKYIALQVIVDIFSVHGNTVVDGEGKVDSISLHKIFYKVLKNNGLPECQVIAAEGLCKLFLADVFTDDDLFETLVLSYFSPINSSNEALVQAFAFCIPVYCFSHPAHQQRMSRTAADILLRLCVLWDDLQSSVIPEVDREAMLKPNIIFQQLLFWTDPRNLVNQTGSTKKDTVQLTFLIDVLKIYAQIEKKEIKKMIITNINAIFLSSEQDYSTLKELLEYSDDIAENDNLDNVSKNALDKLRNNLNSLIEEINERSETQTKDENNTANDQYSSILGNSFNKSSNDTIEHAADITDGNNTELTKTTVNISAVDNTTEQSNSRKRTRSEAEQIDTSKNLENMSIQDTSTVAKNVSFVLPDEKSDAMSIDEEDKDSESFSEVC
**Q.** Which results are given for B3?
**A.** binding [2]: binds; binding [3]: binds; binding [4]: binds
